Results from publication PMC6053351.
Construct, isoform or probe ends are uncertain for at least one entry. At least one verdict rests on a figure or table, not on a statement of the authors.

Tested on: TZAP zinc finger protein
Test: fluorescence polarization
Conditions: positive control; FPA with dsDNA: 25 mM Tris pH 7.4, 50 nM FAM-DNA, 200 ul; recombinant protein; label: 5'-FAM on sense strand

Row | Sequence | binding result
1 | ATAATTTATATTTATTATTTTATTATAATTTATATAATTTATAT (double strand) [AT-rich] | binds
2 | GATCTTTAGTTAACTTCCTCTCTGTCTGCAGGCCACTCCAGATC (double strand) [T1] | binds
3 | GCGGCCCGCGCCCGCCGCCCCGCCGCGGCCCGCGCGGCCCGCGC (double strand) [GC-rich] | binds
